Source: publication PMC9408895

B1: GST-AtSARK-CD Y473E (domain or fragment, UniProt Q8VYT3 260-648)
chain: CWYRKKQRRLLILNLNDKQEEGLQGLGNLRSFTFRELHVYTDGFSSKNILGAGGFGNVYRGKLGDGTMVAVKRLKDINGTSGDSQFRMELEMISLAVHKNLLRLIGYCATSGERLLVYPYMPNGSVASKLKSKPALDWNMRKRIAIGAARGLLYLHEQCDPKIIHRDVKAANILLDECFEAVVGDFGLAKLLNHADSHVTTAVRGTVGHIAPEELSTGQSSEKTDVFGFGILLLELITGLRALEFGKTVSQKGAMLEWVRKLHEEMKVEELLDRELGTNYDKIEVGEMLQVALLCTQYLPAHRPKMSEVVLMLEGDGLAERWAASHNHSHFYHANISFKTISSLSTTSVSRLDAHCNDPTYQMFGSSAFDDDDDHQPLDSFAMELSGPR
B2: GST-AtSARK-CD Y473F (domain or fragment, UniProt Q8VYT3 260-648)
chain: CWYRKKQRRLLILNLNDKQEEGLQGLGNLRSFTFRELHVYTDGFSSKNILGAGGFGNVYRGKLGDGTMVAVKRLKDINGTSGDSQFRMELEMISLAVHKNLLRLIGYCATSGERLLVYPYMPNGSVASKLKSKPALDWNMRKRIAIGAARGLLYLHEQCDPKIIHRDVKAANILLDECFEAVVGDFGLAKLLNHADSHVTTAVRGTVGHIAPEFLSTGQSSEKTDVFGFGILLLELITGLRALEFGKTVSQKGAMLEWVRKLHEEMKVEELLDRELGTNYDKIEVGEMLQVALLCTQYLPAHRPKMSEVVLMLEGDGLAERWAASHNHSHFYHANISFKTISSLSTTSVSRLDAHCNDPTYQMFGSSAFDDDDDHQPLDSFAMELSGPR

Target: senescence-suppressed protein phosphatase SSPP (His-SSPP) (Arabidopsis)
Experiment: pull-down; His-SSPP bound to Ni Sepharose 6 Fast Flow beads; approximately 10 ug GST-AtSARK-CD with or without mutation added; at least 2 h at 4 °C; binding buffer 1.5 M NaCl, 10.1 mM Na2HPO4, 1.8 mM KH2PO4, 20 mM imidazole; eluted with 500 mM imidazole; anti-GST blot; both purified

| Binder | binding |
| --- | --- |
| B1 | binds |
| B2 | binds |

These are yes or no findings as the source states them, for the method shown. Binding calls can cover weak binding; strength is not graded here. Where a sequence is shown, tags or fusion partners need not be part of it.
